## Small-molecule microarray binding calls

Source: the ROBIN nucleic acid binder screens (doi:10.1002/anie.202211358).

Targets, with sequences 5′ to 3′:
SAM-II: SAM-II riboswitch RNA pseudoknot, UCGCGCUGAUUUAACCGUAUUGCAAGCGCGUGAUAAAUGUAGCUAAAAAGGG. Hit rate about 1% of about 21,000 compounds.
PreQ1: PreQ1 riboswitch RNA pseudoknot, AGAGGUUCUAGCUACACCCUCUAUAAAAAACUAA. From B. subtilis. Hit rate about 0.7% of about 24,000 compounds.

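Each compound is printed as two spots on a slide made to bind it covalently, so it has no test concentration; the read-out is fluorescence of the bound, labelled oligonucleotide. The data file lists only calls. An earlier report of the laboratory on the PreQ1, TPP and SAM-II riboswitches (doi:10.1038/s41467-019-09493-3) used 1 µM RNA for 2 h and required a mean Z-score above 3 (spot signal-to-noise against the whole library), a score well above that on a control array, and duplicate spots agreeing (coefficient of variation under 100); it then also set aside compounds that hit other targets, which this list keeps. The cut-offs behind this list may differ. These are primary screening calls, not affinities; a compound without a hit may have attached poorly or may still bind in solution.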 “hit” means called a hit, “no hit” means screened and not called a hit. This is an unselected part of the compounds tested. A target missing from an entry has no call listed here.

- O=C1c2cccc3c(N4CCCCC4)ccc(c23)C(=O)N1CCO | SAM-II: no hit; PreQ1: no hit
- COc1ccc(F)c(CN2CCC(N3CCC(O)CC3)CC2)c1Cl | SAM-II: no hit; PreQ1: no hit
- CNCCCn1cc(-c2cccc(C)c2C)nn1 | SAM-II: no hit; PreQ1: no hit
- NC1=C(c2nc3ccccc3[nH]2)C(=O)CN1c1cccc(O)c1 | PreQ1: no hit
- Cn1cc(CCCNc2ncnc3c2CCNCC3)cn1 | SAM-II: no hit; PreQ1: no hit
- Cc1ccc(Nc2c(S(=O)(=O)c3ccccc3)cnc3ccccc23)cc1C | PreQ1: no hit
- CN(Cc1cc(C(C)(C)C)n[nH]1)C(=O)c1cccc(CC2CCNCC2)c1 | SAM-II: no hit; PreQ1: no hit
- O=C(CC1CCc2ccccc21)NCCNc1cccnc1 (centres unmarked) | SAM-II: no hit; PreQ1: no hit
- CCOC(=O)c1ccc2ncc(C(=O)OCC)c(NCCN3CCOCC3)c2c1 | SAM-II: no hit; PreQ1: no hit
- CCNc1nc2c(c(=O)n(C)c(=O)n2C)n1CC | SAM-II: no hit; PreQ1: no hit
- CCC(CO)NCc1ccc(-c2cccc(OC)c2)o1 (centres unmarked) | SAM-II: no hit; PreQ1: no hit
- Cc1cccc(CN2c3ccccc3C3=C(C(c4ccc(F)cc4)C(C#N)=C(N)O3)S2(=O)=O)c1 (centres unmarked) | PreQ1: no hit
- COc1cccc2c1C(=O)c1c(O)c3c(c(O)c1C2=O)C[C@@](O)(C(=O)CO)C[C@H]3O[C@H]1C[C@H](N)[C@H](O)[C@H](C)O1 | SAM-II: no hit; PreQ1: no hit
- COc1sc2c(c(=O)c1N)CCCC2 | SAM-II: no hit; PreQ1: no hit
- CCOC(=O)c1ccc(NC2=NS(=O)(=O)C(c3ccc(C)c(C)c3)=C2C)cc1 | PreQ1: no hit
- CCOc1ccc(-c2cnc(NCc3ccc(C(F)(F)F)cc3)n2C)cc1 | SAM-II: no hit; PreQ1: no hit
- CS(=O)(=O)Nc1cccc(NC(=O)N(CCCO)Cc2cccs2)c1 | SAM-II: no hit; PreQ1: no hit
- CCSc1nc(=O)cc(O)[nH]1 | SAM-II: no hit; PreQ1: no hit
- C1COCCN1.COC(=O)C1=C(C)NC(S)=C(C#N)C1c1cccs1 (centres unmarked) | SAM-II: no hit; PreQ1: no hit
- Nc1ccc(-c2nc3nc(N)nc(N)c3nc2-c2ccc(N)cc2)cc1 | SAM-II: hit; PreQ1: no hit
- O=c1cc(CN2CCN(CCO)CC2)c2cc(O)c(-c3ccccc3)cc2o1 | SAM-II: no hit; PreQ1: no hit
- CCCCNc1oc(-c2ccccc2)nc1S(=O)(=O)c1ccc(Cl)cc1 | PreQ1: no hit
- COc1ccccc1OCC(O)Cn1c(=N)n(CCN2CCCCC2)c2ccccc21 (centres unmarked) | SAM-II: no hit; PreQ1: no hit
- Cc1cccc(NC(=O)Cn2nnc(C(=O)Nc3ccc(C)c(C)c3)c2N)c1 | SAM-II: no hit; PreQ1: no hit
- COCCn1cc(-c2csc(N)n2)c2ccccc21 | SAM-II: no hit; PreQ1: no hit
- CNC1CCCc2c1n(C)c1ccc(Cl)cc21 (centres unmarked) | PreQ1: no hit
- OC1CCCOC12CCN(c1ncc(F)c(N3CCOCC3)n1)CC2 (centres unmarked) | SAM-II: no hit; PreQ1: no hit
- Nc1nnc(CCn2cnc3sc4c(c3c2=O)CCNC4)s1 | SAM-II: no hit; PreQ1: no hit
- CCc1nnc2c3ccccc3nc(NCCc3ccc(OC)c(OC)c3)n12 | SAM-II: no hit; PreQ1: no hit
- CC(=O)c1cc2c(N)c(C(=O)c3ccc(Cl)cc3)sc2nc1C | SAM-II: no hit; PreQ1: no hit
- Cn1c(N2CCCCS2(=O)=O)nc(C(=O)NCc2ccc(F)cc2)c(O)c1=O | SAM-II: no hit; PreQ1: no hit
- Oc1ccc2ccccc2c1/N=N/c1ccc(F)cc1 | SAM-II: no hit; PreQ1: no hit
- CNc1nc(N(C)C)nc(-n2cnc(SCCOc3ccc(C)cc3)n2)n1 | PreQ1: no hit
- O=[N+]([O-])c1cc([As](=O)(O)c2ccc(O)c([N+](=O)[O-])c2)ccc1O | SAM-II: no hit; PreQ1: no hit
- Cc1nc(Nc2nc3ccccc3o2)nc(C)c1C | SAM-II: no hit; PreQ1: no hit
- CN(Cc1cc2n(n1)CCNC2)CC1CCN(c2ccccc2)C1 (centres unmarked) | SAM-II: no hit; PreQ1: no hit
- C=CCNC(=O)c1sc(=S)n(CC)c1N | SAM-II: no hit; PreQ1: no hit

For reference, 4 entries once more:

- CCSc1nc(=O)cc(O)[nH]1 | SAM-II: no hit; PreQ1: no hit
- Cc1cccc(CN2c3ccccc3C3=C(C(c4ccc(F)cc4)C(C#N)=C(N)O3)S2(=O)=O)c1 (centres unmarked) | PreQ1: no hit
- Nc1nnc(CCn2cnc3sc4c(c3c2=O)CCNC4)s1 | SAM-II: no hit; PreQ1: no hit
- COc1sc2c(c(=O)c1N)CCCC2 | SAM-II: no hit; PreQ1: no hit